24 targets from the supplement of paper PMC10849652 can be followed below.

Sequences of proteins named here, by UniProt entry; tags and fusion partners are left off. A change or cut given only in a name is not applied to a line headed by its entry.
UniProt Q93083: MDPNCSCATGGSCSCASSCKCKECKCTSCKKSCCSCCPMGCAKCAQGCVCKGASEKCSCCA
UniProt Q2M296: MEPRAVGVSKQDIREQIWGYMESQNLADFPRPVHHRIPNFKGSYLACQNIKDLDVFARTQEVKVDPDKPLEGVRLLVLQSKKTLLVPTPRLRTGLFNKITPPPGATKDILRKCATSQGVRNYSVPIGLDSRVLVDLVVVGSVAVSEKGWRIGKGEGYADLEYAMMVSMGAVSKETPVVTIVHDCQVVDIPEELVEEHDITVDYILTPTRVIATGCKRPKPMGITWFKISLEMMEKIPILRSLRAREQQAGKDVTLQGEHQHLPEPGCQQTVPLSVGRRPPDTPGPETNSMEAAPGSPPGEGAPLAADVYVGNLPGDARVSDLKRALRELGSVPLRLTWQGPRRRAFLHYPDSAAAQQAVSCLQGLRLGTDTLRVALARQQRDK
MTHFD1, A0A384N5Y3, UniProt A0A384N5Y3, whole entry, looked up: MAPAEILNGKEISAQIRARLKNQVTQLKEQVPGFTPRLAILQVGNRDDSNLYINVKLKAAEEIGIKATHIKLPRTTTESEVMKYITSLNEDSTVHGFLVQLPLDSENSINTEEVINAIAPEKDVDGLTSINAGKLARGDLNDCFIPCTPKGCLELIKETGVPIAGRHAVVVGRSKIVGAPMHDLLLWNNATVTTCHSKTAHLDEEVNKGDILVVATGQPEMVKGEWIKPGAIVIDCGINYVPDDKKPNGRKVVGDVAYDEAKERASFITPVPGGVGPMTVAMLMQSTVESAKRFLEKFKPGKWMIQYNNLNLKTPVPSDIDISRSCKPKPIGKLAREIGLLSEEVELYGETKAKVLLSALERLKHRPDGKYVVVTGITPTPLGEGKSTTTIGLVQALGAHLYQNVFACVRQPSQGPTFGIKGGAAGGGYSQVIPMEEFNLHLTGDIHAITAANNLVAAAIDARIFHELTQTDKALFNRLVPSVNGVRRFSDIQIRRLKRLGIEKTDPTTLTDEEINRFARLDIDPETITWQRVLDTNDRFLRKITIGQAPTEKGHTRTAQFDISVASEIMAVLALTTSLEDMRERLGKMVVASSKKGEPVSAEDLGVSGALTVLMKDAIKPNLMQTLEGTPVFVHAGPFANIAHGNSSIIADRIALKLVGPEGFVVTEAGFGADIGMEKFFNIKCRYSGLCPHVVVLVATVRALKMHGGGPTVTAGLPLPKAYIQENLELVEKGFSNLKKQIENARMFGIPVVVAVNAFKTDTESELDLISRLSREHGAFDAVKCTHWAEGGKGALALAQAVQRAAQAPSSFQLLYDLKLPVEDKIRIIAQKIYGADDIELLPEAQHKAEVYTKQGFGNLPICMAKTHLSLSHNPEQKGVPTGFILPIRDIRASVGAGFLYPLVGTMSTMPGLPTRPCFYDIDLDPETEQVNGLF
UniProt Q99836, whole entry, looked up: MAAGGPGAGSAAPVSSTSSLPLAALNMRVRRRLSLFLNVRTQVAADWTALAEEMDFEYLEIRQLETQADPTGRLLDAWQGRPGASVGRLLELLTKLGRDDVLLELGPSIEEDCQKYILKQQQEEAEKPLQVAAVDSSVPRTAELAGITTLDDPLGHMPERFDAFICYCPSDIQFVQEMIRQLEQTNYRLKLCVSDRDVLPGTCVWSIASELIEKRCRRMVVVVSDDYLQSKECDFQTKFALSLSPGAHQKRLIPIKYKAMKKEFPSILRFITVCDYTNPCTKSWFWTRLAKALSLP
UniProt P03923, whole entry, looked up: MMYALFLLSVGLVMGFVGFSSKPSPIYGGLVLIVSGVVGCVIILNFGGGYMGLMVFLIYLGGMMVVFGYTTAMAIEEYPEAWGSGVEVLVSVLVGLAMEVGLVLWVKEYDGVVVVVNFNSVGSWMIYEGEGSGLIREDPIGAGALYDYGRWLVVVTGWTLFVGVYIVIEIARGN
UniProt P00414, whole entry, looked up: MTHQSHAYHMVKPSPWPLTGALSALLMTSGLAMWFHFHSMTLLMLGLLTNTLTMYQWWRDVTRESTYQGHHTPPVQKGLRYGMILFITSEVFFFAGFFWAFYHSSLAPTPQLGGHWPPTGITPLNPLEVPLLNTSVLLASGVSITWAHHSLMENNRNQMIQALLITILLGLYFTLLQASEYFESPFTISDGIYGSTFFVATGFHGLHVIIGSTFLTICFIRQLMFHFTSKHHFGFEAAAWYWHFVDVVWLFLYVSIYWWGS
UniProt G3V1V0: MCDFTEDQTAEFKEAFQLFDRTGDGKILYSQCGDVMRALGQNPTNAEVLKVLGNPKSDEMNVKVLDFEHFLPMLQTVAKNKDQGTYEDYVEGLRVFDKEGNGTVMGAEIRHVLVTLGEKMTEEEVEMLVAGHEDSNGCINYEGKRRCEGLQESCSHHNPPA
UniProt O43312: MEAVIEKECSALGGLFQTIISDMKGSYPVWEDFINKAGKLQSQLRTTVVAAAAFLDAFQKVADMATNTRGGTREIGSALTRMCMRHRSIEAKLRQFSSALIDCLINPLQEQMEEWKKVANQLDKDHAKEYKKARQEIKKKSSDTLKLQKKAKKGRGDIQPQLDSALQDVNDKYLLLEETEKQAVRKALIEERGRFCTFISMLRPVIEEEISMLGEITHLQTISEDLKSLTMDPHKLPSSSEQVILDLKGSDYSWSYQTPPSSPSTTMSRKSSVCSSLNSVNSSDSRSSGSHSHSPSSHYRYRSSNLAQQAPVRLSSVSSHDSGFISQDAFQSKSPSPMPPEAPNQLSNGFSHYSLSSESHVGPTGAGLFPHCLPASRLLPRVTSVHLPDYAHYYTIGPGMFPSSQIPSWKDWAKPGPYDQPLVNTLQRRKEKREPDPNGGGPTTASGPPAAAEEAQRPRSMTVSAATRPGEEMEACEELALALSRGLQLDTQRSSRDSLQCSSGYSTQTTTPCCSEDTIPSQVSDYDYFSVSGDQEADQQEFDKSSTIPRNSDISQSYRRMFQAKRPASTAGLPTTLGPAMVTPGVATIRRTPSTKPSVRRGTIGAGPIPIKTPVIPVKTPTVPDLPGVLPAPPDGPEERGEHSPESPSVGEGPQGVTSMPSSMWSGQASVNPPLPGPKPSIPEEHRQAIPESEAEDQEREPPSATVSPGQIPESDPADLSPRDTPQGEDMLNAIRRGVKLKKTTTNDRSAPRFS
UniProt P03891, whole entry, looked up: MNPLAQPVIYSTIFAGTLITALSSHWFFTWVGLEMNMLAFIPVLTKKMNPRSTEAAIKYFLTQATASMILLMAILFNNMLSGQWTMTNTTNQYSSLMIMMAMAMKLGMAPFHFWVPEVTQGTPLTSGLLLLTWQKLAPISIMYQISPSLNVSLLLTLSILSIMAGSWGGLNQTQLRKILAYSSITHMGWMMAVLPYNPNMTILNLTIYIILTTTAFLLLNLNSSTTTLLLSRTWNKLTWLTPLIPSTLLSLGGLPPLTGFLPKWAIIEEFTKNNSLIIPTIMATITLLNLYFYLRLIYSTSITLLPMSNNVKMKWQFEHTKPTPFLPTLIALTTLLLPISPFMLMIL
UniProt P13640: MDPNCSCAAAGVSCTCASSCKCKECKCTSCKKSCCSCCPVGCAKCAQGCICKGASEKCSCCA
UniProt Q9H6N6: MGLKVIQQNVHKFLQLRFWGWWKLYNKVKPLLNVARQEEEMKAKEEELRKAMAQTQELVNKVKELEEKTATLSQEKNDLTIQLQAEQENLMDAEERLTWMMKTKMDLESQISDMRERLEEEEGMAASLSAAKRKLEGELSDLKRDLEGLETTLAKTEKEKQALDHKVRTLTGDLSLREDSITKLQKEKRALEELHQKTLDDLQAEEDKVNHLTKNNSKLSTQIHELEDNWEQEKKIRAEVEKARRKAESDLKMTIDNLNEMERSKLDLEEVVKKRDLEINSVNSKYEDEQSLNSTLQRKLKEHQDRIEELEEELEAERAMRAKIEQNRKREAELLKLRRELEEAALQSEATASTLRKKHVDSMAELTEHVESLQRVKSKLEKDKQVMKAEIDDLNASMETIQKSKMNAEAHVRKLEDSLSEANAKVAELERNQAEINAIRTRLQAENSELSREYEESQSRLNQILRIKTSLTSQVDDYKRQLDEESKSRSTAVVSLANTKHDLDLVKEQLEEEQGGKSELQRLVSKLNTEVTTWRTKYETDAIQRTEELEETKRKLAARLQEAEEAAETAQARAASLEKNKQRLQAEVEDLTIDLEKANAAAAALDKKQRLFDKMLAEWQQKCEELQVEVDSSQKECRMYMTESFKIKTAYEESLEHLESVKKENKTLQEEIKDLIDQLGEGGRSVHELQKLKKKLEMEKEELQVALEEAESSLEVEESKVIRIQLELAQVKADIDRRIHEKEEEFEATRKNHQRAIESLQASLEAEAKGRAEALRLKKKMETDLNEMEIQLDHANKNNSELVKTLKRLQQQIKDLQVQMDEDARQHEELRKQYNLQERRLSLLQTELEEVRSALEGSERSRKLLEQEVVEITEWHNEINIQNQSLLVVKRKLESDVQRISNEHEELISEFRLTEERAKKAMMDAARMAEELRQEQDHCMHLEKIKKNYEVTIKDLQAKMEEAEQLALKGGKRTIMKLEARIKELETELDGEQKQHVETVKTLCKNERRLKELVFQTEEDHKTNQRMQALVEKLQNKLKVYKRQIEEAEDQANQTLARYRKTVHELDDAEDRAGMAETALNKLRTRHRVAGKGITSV
UniProt Q96DP5: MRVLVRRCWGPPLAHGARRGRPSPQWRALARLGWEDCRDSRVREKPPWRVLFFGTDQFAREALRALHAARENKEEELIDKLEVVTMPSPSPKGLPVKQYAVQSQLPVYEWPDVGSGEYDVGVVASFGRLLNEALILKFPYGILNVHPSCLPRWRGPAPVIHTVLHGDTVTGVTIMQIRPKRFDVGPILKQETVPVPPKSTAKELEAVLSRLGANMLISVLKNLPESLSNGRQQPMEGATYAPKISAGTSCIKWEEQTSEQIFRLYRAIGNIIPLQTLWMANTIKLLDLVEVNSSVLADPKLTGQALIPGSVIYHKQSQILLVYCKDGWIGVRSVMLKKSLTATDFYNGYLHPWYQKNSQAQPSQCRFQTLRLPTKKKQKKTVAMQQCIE
UniProt Q9BTC8: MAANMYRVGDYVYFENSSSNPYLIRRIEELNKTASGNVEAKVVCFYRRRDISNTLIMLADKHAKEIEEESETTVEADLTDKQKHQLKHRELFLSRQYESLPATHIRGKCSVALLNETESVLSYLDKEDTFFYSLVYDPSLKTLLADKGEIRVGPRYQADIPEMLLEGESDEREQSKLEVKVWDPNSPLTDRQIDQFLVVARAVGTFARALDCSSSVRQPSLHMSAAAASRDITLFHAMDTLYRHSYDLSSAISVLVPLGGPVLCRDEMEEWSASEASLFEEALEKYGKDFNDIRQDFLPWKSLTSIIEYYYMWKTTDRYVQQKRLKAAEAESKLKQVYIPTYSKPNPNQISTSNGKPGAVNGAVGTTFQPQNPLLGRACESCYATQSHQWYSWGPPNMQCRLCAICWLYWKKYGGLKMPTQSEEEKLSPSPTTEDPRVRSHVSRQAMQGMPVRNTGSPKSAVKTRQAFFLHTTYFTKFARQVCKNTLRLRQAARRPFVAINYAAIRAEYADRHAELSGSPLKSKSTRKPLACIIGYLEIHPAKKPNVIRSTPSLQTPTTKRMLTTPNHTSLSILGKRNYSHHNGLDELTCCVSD
UniProt Q96E29: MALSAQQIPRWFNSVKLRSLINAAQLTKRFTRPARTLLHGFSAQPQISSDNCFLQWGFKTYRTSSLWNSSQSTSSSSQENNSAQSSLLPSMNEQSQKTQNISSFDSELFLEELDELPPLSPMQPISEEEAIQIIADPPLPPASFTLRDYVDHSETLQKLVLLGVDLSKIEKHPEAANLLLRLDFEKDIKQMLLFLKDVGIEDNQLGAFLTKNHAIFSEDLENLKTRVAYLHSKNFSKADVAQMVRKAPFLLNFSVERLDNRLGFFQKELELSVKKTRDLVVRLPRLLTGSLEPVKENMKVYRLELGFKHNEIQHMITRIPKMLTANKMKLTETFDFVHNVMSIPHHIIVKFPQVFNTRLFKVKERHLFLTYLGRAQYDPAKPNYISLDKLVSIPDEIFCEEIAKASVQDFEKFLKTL
UniProt Q6P1R3: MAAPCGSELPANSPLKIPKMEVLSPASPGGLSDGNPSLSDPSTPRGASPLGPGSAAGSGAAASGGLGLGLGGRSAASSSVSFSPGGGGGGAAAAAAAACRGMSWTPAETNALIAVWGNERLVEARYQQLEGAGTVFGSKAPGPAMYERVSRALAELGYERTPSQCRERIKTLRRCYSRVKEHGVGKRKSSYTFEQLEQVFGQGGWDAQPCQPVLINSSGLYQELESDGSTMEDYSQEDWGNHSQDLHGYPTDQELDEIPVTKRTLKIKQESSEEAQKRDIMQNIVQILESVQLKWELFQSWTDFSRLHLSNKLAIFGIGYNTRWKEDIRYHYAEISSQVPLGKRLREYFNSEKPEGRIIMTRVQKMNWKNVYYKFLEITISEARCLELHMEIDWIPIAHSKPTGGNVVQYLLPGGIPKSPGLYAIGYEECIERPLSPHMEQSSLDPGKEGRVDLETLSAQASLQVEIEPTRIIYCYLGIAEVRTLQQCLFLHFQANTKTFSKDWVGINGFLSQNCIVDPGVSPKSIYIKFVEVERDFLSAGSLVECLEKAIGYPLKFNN

Some of the results follow.

Compound in the first assay: C1=CC=C2C(=C1)C3=NNC4=CC=CC(=C43)C2=O
In words: log2 fold change, soluble protein after heating vs DMSO (PISA); higher = thermal stabilisation; K562 cells, 10 uM, 30 min; active = over 0.2 and 3.5 SD of the protein, either way, in both replicates (recomputed). The method in brief: (§1)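 Quantification of soluble protein used TMTpro 16plex LC-MS/MS, with channel sums equalised. Samples were the supernatant after 21,000xg for 90 min of pooled aliquots from K562 cells (2×10^6 cells/mL) treated with 10 μM compound for 30 min, heated for 3 min over 48°C-58°C, and extracted in PBS with 0.5% NP-40 at 4°C. Values, from duplicates, describe thermal stability against control samples on a log2 fold-change scale.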
For the target MT1L (UniProt Q93083), the log2 fold change was inactive: -0.136.
The same measure, in the same setting: the same measure for MTHFSD isoform 3 (UniProt Q2M296): inactive: 0.005; for MTHFSD (UniProt Q2M296): inactive: 0.04; for MTHFD1, A0A384N5Y3: inactive: 0.01.
Still for that read-out and setting: the same measure for MYD88 isoform 6 (UniProt Q99836): inactive: 0.134; for MT-CO1 (UniProt P00395): inactive: -0.049.
Same read-out and setting: the same measure for MT-ND6 (UniProt P03923): inactive: -0.258; for MT-CO3 (UniProt P00414): inactive: -0.002.
Consider MTMR1 (UniProt Q13613), for which the log2 fold change is inactive: -0.09.
Same read-out and setting: the value for MYL6 (UniProt G3V1V0) was inactive: -0.087; that for MTHFD1L (UniProt B7ZM99) was inactive: -0.014.
Same read-out and setting: the same measure for MTSS1 isoform 5 (UniProt O43312): inactive: -0.11.
Still for that read-out and setting: the same measure for MTRF1 (UniProt O75570): inactive: -0.067; for MT-ND2 (UniProt P03891): inactive: 0.044; for MRPS14 (UniProt O60783): inactive: 0.025.
For the target MT1G (UniProt P13640), the log2 fold change was inactive: -0.098.
Take MYH16 (UniProt Q9H6N6): the log2 fold change is inactive: 0.044.

Compound in another assay: C1CCN(C1)C(=O)NC2=CC=CC(=C2)NC3=NC=C(C(=N3)NCCC4=CN=CN4)Br
Described as above. The method in brief: as §1
Regarding MT1L (UniProt Q93083), the log2 fold change is inactive: 0.187.
On to MTHFSD isoform 3 (UniProt Q2M296), for which the log2 fold change is inactive: 0.011.
Still for that read-out and setting: the same measure for MTHFSD (UniProt Q2M296): inactive: -0.077; for MTFMT (UniProt Q96DP5): inactive: 0.14; for MTURN (UniProt Q8N3F0): inactive: 0.085.
On the same count and under the same terms, the value for MYH3 (UniProt P11055) was inactive: -0.03.
In the case of MYLK (UniProt Q15746), the log2 fold change is inactive: 0.008.
On to MTHFD1, A0A384N5Y3, for which the log2 fold change is inactive: -0.004.
As to MTA3 (UniProt Q9BTC8), the log2 fold change is inactive: 0.116.
Same read-out and setting: the same measure for MT-CO1 (UniProt P00395): inactive: -0.092; for MTERF3 (UniProt Q96E29): inactive: -0.173; for MT-ND6 (UniProt P03923): inactive: 0.111.
On the same count and under the same terms, the same measure for MT-CO3 (UniProt P00414): inactive: -0.138; for MTMR1 (UniProt Q13613): inactive: -0.096; for MYL6 (UniProt G3V1V0): inactive: -0.021.
As for MTSS1 isoform 5 (UniProt O43312), the log2 fold change is inactive: 0.032.
The same measure, in the same setting: the value for MT-ND2 (UniProt P03891) was inactive: -0.016.
The same measure, in the same setting: the value for MRPS14 (UniProt O60783) was inactive: 0.214; that for MT1G (UniProt P13640) was inactive: 0; that for MYH16 (UniProt Q9H6N6) was inactive: -0.089.
Take MSANTD2 (UniProt Q6P1R3): the log2 fold change is inactive: -0.081.

Compound in the next assay: C1CN(CCC1(CC2=CC=C(C=C2)Cl)N)C3=NC=NC4=C3C=CN4
The description is as above. The method in brief: as §1
MT1L (UniProt Q93083): the log2 fold change was inactive: 0.245.
Same read-out and setting: the value for MTHFSD isoform 3 (UniProt Q2M296) was inactive: -0.096; that for MTHFSD (UniProt Q2M296) was inactive: 0.091.
On to MTFMT (UniProt Q96DP5), for which the log2 fold change was inactive: -0.092.
Still for that read-out and setting: the same measure for MTURN (UniProt Q8N3F0): inactive: -0.413; for MYH3 (UniProt P11055): inactive: 0.045; for MYLK (UniProt Q15746): inactive: -0.066.
For the target MTHFD1, A0A384N5Y3, the log2 fold change was inactive: 0.033.
Turning to MTA3 (UniProt Q9BTC8), the log2 fold change was inactive: 0.037.
The same measure, in the same setting: the value for MT-CO1 (UniProt P00395) was inactive: 0.011; that for MTERF3 (UniProt Q96E29) was inactive: 0.046.
In the case of MT-ND6 (UniProt P03923), the log2 fold change was inactive: -0.05.
With MT-CO3 (UniProt P00414), the log2 fold change is inactive: 0.152.
Still for that read-out and setting: the same measure for MTMR1 (UniProt Q13613): inactive: -0.098.
The same measure, in the same setting: the value for MYL6 (UniProt G3V1V0) was inactive: 0.087.
The same measure, in the same setting: the same measure for MTSS1 isoform 5 (UniProt O43312): inactive: -0.199; for MT-ND2 (UniProt P03891): inactive: -0.093; for MRPS14 (UniProt O60783): inactive: -0.032.
For MT1G (UniProt P13640), the log2 fold change was inactive: 0.175.
MYH16 (UniProt Q9H6N6): the log2 fold change was inactive: -0.082.
Same read-out and setting: the value for MSANTD2 (UniProt Q6P1R3) was inactive: -0.052.
